EC50 data for 94 molecules are collected here from PubChem BioAssay AID434947 (Broad Institute, 2010).

Structures are written as SMILES. Hit rate of the full screen: of about 2,200 compounds, about 15 (0.7%) were called active.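 How the source made its calls: active means fitted half-maximal concentration for loss of luminescence signal no more than a set limit of log units above the top tested concentration; inconclusive means flat fit with 30 to 70% signal loss, or invalid fit; inactive means half-maximal concentration above that set limit.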 The list shows a part of the results.

This assay can be described thus: inhibitors of ADP-Glo detection reagents, dose response, artefact control for GSK3beta inhibitor project, biochemical, luminescence, cell-free, homogeneous (AID 434947). Conditions: 5 uM ADP.
One may read the EC50 as the concentration at which the effect is half-maximal. With `O=c1c(O)c(-c2ccc(O)cc2)oc2cc(O)cc(O)c12`, the EC50 was inactive: > 30 µM.

For the molecule `CN(C)Cc1c(C(=O)N/N=C/c2ccccc2OCc2c(F)cccc2Cl)nnn1-c1nonc1N`, the EC50 was inactive: > 30 µM.

Consider `COc1ccc(C(=O)N/C(=C\c2ccco2)C(=O)NCCN2CCOCC2)cc1`, for which the EC50 was inactive: > 30 µM.

For `CN(CCO)S(=O)(=O)c1ccc2c(c1)C(=NNC(N)=O)c1cc(S(=O)(=O)N(C)CCO)ccc1-2`, the EC50 is inactive: > 30 µM.

For `Nc1ncnc(NC2CCS(=O)(=O)C2)c1[N+](=O)[O-]` (centres undefined), the EC50 is inactive: > 30 µM.

Regarding `COC(=O)c1c(C)oc2ccc(OC(=O)c3cccs3)cc12`, the EC50 was inactive: > 30 µM.

With `COc1ccc(CC(=O)OCC(=O)Nc2ccc(Cl)cn2)cc1`, the EC50 is inactive: > 30 µM.

For the molecule `CCCc1c(NC(=O)Nc2ccc(F)cc2)cnn1-c1ccccc1`, the EC50 was inactive: > 30 µM.

Take `CCOC(=O)c1ccc(NC(=O)Nc2ccccn2)cc1`: the EC50 is inactive: > 30 µM.

On to `COC(=O)C(C)Oc1cc(OC(C)C(=O)OC)c2c(-c3ccccc3)cc(=O)oc2c1` (centres undefined), for which the EC50 is inactive: > 30 µM.

Turning to `CC1(C)N=C(N)N=C(N)N1c1ccc(Oc2ccc(Cl)cc2)c(Cl)c1`, the EC50 is inactive: > 30 µM.

As for `COc1ccc(CNC(=O)CN(Cc2ccccc2)C(=O)CCC(=O)Nc2ccccn2)cc1`, the EC50 was inactive: > 30 µM.

`Nc1nc(NCCCN2CCOCC2)nc(NCc2ccccc2)c1[N+](=O)[O-]`: the EC50 is inactive: > 30 µM.

On to `Cn1c(SCC(=O)Nc2ccc(Br)cn2)nnc1C1CC1`, for which the EC50 was inactive: > 30 µM.

For `CC(=O)c1ccc(Cc2cnc(N)s2)cc1`, the EC50 was inactive: > 30 µM.

For `Nc1nc(NCC(=O)O)nc(NC2CCCCC2)c1[N+](=O)[O-]`, the EC50 was inactive: > 30 µM.

In the case of `O=C1CC(N2CCC(c3nc4ccccc4s3)CC2)C(=O)N1` (centres undefined), the EC50 was inactive: > 30 µM.

As for `Cc1ccc(C(OCCN(C)C)c2cccc(C(F)(F)F)c2)cc1` (centres undefined), the EC50 is inactive: > 30 µM.

In the case of `Cc1ccnc(NC(=O)C2CC(=O)N(c3ccc4c(c3)OCCO4)C2)c1` (centres undefined), the EC50 is inactive: > 30 µM.

In the case of `CN(C)N=Nc1ccc(S(N)(=O)=O)cc1`, the EC50 is inactive: > 30 µM.

Consider `O=C(N/N=C/c1ccc(O)c(O)c1)N/N=C/c1ccc(O)c(O)c1`, for which the EC50 is inactive: > 30 µM.

With `CCN1CCN(C(=O)c2cc3cc4cc(OC)ccc4nc3s2)CC1`, the EC50 was inactive: > 30 µM.

Consider `Fc1ccc(CSc2nnc(-c3ccncc3)o2)cc1`, for which the EC50 is inactive: > 30 µM.

As for `O=C(Cc1ccc(Br)cc1)Nc1ncc([N+](=O)[O-])s1`, the EC50 was inactive: > 30 µM.

Regarding `O=C(NCCc1ccccc1)c1cccc(Br)c1`, the EC50 was inactive: > 30 µM.

Regarding `O=C(Nc1ccccn1)Nc1ccccc1[N+](=O)[O-]`, the EC50 was inactive: > 30 µM.

On to `O=C(O)c1cccc(CSc2nnc(-c3cccnc3)o2)c1`, for which the EC50 is inactive: > 30 µM.

Regarding `N#CC1=C2SCN(Cc3ccccc3)CN2C(=O)CC1c1cccs1` (centres undefined), the EC50 was inactive: > 30 µM.

Take `O=C(CCS(=O)(=O)c1ccccc1)Nc1cccc2c1C(=O)NC2=O`: the EC50 was inactive: > 30 µM.

Regarding `N#Cc1c(-c2cccs2)nc(SCC(=O)c2ccc(Br)cc2)[nH]c1=O`, the EC50 was inactive: > 30 µM.

In the case of `COc1cccc(C(N)=O)c1`, the EC50 is inactive: > 30 µM.

Regarding `COc1ccc(C2C(C(C)=O)=C(O)C(=O)N2c2nccs2)c(OC)c1` (centres undefined), the EC50 is inactive: > 30 µM.

For `COc1ccc(-c2nn(CCC#N)cc2/C=N/O)cc1OC`, the EC50 was inactive: > 30 µM.

Regarding `N#Cc1ccccc1NC(=O)CSc1nnc(-c2ccncc2)o1`, the EC50 was inactive: > 30 µM.

As for `COc1ccc(Cl)cc1-n1c(C)ccc1C`, the EC50 was inactive: > 30 µM.

As to `Cc1ccc(S(=O)(=O)N(C)C)cc1NC(=O)c1ccc(OC(F)(F)F)cc1`, the EC50 is inactive: > 30 µM.

On to `Cc1cccc(C(=O)NCC(c2ccco2)N2CCc3ccccc32)c1` (centres undefined), for which the EC50 is inactive: > 30 µM.

Turning to `c1ccc2c(Nc3nc(-c4ccncc4)nc4ccccc34)cccc2c1`, the EC50 was inactive: > 30 µM.

On to `COCCn1c(SCC(=O)NCc2ccccc2)nc2ccccc21`, for which the EC50 is inactive: > 30 µM.

With `N#Cc1c(-c2ccccc2)nc(-c2ccccc2)[nH]c1=O`, the EC50 is inactive: > 30 µM.

Take `Cn1c(=O)[nH]c(=O)c2c1nc(Br)n2Cc1ccccc1Cl`: the EC50 was inactive: > 30 µM.

In the case of `O=C1NC(c2cccs2)Nc2sc3c(c21)CCCC3` (centres undefined), the EC50 was inactive: > 30 µM.

For the molecule `CC(C)(C)Sc1ccc(/C=N/O)cc1[N+](=O)[O-]`, the EC50 is inactive: > 30 µM.

On to `COc1ccc(OC)c(C(=O)c2coc3ccc(O)cc23)c1`, for which the EC50 was inactive: > 30 µM.

Consider `Cc1ccc2nc(-c3ccc4c(c3)NC(=O)CO4)cn2c1`, for which the EC50 is inactive: > 30 µM.

Consider `Cc1ccc(C(=O)O/N=C(\N)c2ccccn2)c(C)c1`, for which the EC50 was active: 17.6 µM.

As for `O=C(Nc1sccc1C(=O)N1CCOCC1)c1cccnc1`, the EC50 is inactive: > 30 µM.

As to `CCOC(=O)CNC(=O)CSc1ccc2nnc(-c3cccnc3)n2n1`, the EC50 is inactive: > 30 µM.

In the case of `COC(=O)c1nnn(-c2nonc2N)c1CSCCO`, the EC50 is inactive: > 30 µM.

Regarding `O=S(=O)(Nc1cccnc1)c1ccc(C2CCCCC2)cc1`, the EC50 is inactive: > 30 µM.

In the case of `Cc1cccc(/C=C2/Sc3ccc(C(=O)NCCN4CCCC4)cc3NC2=O)c1`, the EC50 was inactive: > 30 µM.

Turning to `O=C(Nc1nnc(-c2cc(Cl)ccc2Cl)o1)c1ccco1`, the EC50 is inactive: > 30 µM.

As to `O=C(/C=C/c1ccc2ccccc2c1)c1ccoc1`, the EC50 was inactive: > 30 µM.

In the case of `CCn1c(SCC(=O)Nc2ccc(C(C)=O)cc2)nnc1C1CC1`, the EC50 is inactive: > 30 µM.

As to `Cc1cc(C)n2nc(C(=O)OCC(=O)NC(=O)c3ccccc3)nc2n1`, the EC50 is inactive: > 30 µM.

In the case of `COc1ccc(Nc2nc(-c3ccccc3)c(C(=O)Nc3cccnc3)s2)cc1`, the EC50 is inactive: > 30 µM.

Consider `COc1cccc(C(=O)Nc2ccc(C(=O)NCC(C)C)cc2)c1`, for which the EC50 is inactive: > 30 µM.

Consider `CCOc1ccccc1NC(=O)CSc1nnc(C2CC2)n1CC`, for which the EC50 was inactive: > 30 µM.

Turning to `Cc1ccccc1-c1nnc(SCc2ccccc2F)o1`, the EC50 is inactive: > 30 µM.

In the case of `CC(=O)N1CCc2c(sc(NC(=O)Cc3ccccc3)c2C(N)=O)C1`, the EC50 is inactive: > 30 µM.

For the molecule `CC(=O)Oc1ccc2occ(C(=O)c3cccs3)c2c1`, the EC50 was inactive: > 30 µM.

On to `Cc1ccc(C(=O)c2coc3ccc(O)cc23)cc1`, for which the EC50 was inactive: > 30 µM.

In the case of `Cc1ccc(-c2nn(-c3ccccc3)cc2/C=N/NS(=O)(=O)c2ccccc2)cc1`, the EC50 is inactive: > 30 µM.

`CCCN(C(=O)CCNC(=O)Cn1cnc2ccccc2c1=O)c1cccc(Cl)c1`: the EC50 is inactive: > 30 µM.

`CSCCC(C(=O)NCc1cccs1)N1C(=O)c2ccccc2C1=O` (centres undefined): the EC50 was inactive: > 30 µM.

`NS(=O)(=O)c1ccc(NC(=O)CN2C(=O)CCC2=O)cc1`: the EC50 is inactive: > 30 µM.

For `COC(=O)CSc1ccc2nnc(-c3ccc(F)cc3)n2n1`, the EC50 is inactive: > 30 µM.

For `COc1ccc(-c2cc(C(=O)N3CCN(C(=O)c4ccco4)CC3)[nH]n2)cc1`, the EC50 is inactive: > 30 µM.

For `CCCCn1nc(NC(=O)c2cccs2)c2cc3cc(OC)ccc3nc21`, the EC50 was inactive: > 30 µM.

With `Fc1cccc(/C=N/Nc2ncnc3nc[nH]c23)c1`, the EC50 was inactive: > 30 µM.

For the molecule `Nc1nc(Nc2ccccc2)nc(NCc2ccccc2)c1[N+](=O)[O-]`, the EC50 is inactive: > 30 µM.

As for `O=C(N/N=C/c1ccc(Br)s1)c1cccnc1`, the EC50 is inactive: > 30 µM.

Turning to `CC1(C)CC(=O)C=C(Nc2ccccc2O)C1`, the EC50 is inactive: > 30 µM.

Regarding `COc1cccc2cc(C(=O)NCc3ccc(C)cc3)c(=N)oc12`, the EC50 is inactive: > 30 µM.

Take `Nc1ncnc(N2CCc3ccccc32)c1[N+](=O)[O-]`: the EC50 was inactive: > 30 µM.

As to `COc1cccc2cc(CC(=O)c3ccc(C)cc3C)c(=O)oc12`, the EC50 was inactive: > 30 µM.

With `Cc1cccc(Nc2nc(NCCCN3CCOCC3)nc(N)c2[N+](=O)[O-])c1`, the EC50 is inactive: > 30 µM.

Consider `NS(=O)(=O)c1ccc(CCNC(=O)CSc2nc3ccsc3c(=O)n2C2CC2)cc1`, for which the EC50 is inactive: > 30 µM.

For the molecule `Nc1nonc1-n1nnc(C(=O)N/N=C/c2ccccc2)c1CN1CCc2ccccc21`, the EC50 is inactive: > 30 µM.

As to `N#CC(C#N)=Cc1cc2ccccc2nc1N1CCOCC1`, the EC50 was inactive: > 30 µM.

As for `O=C(O)c1ccc(-c2ccc(/C=N/Nc3ccc([N+](=O)[O-])cc3)o2)cc1`, the EC50 was inactive: > 30 µM.

Take `Cc1cccc(Nc2nc(N)c([N+](=O)[O-])c(NCc3ccccc3)n2)c1`: the EC50 was inactive: > 30 µM.

For `COc1ccc2c(c1)/C(=N/N1C(=O)c3ccccc3C1=O)C(=O)N2`, the EC50 is inactive: > 30 µM.

As to `COc1ccc(-n2c(=O)c3c4c(sc3n3c(=S)[nH]nc23)CCC4)cc1`, the EC50 was inactive: > 30 µM.

For `CCCN(CCC)Cc1c(C(=O)N/N=C/c2c[nH]c3ccccc23)nnn1-c1nonc1N`, the EC50 was inactive: > 30 µM.

Regarding `CC1=C(C(=O)Nc2ccccc2F)C(c2cccs2)C2=C(CCCC2=O)N1` (centres undefined), the EC50 is inactive: > 30 µM.

On to `CCc1cc(C(=O)c2ccc(OC)cc2)c(NC(=O)CN2CCN(C)CC2)s1`, for which the EC50 was inactive: > 30 µM.

With `COc1ccc(Nc2nc(NCc3ccco3)nc(N)c2[N+](=O)[O-])cc1`, the EC50 was inactive: > 30 µM.

As to `CCOC(=O)c1ccc2c(c1)n(CC)c(/C=C/N(C)c1ccccc1)[n+]2CC`, the EC50 was inactive: > 35 µM.

Turning to `COc1ccc2c(C)c(CC(=O)N3CCN(C(=O)C4COc5ccccc5O4)CC3)c(=O)oc2c1` (centres undefined), the EC50 is inactive: > 30 µM.

As for `Cc1[nH]nc2c1[C@@H](c1ccccc1[N+](=O)[O-])C(C#N)=C(N)O2`, the EC50 is inactive: > 30 µM.

Consider `Cc1csc(SCC(=O)Nc2ccc(Cl)cn2)n1`, for which the EC50 is inactive: > 30 µM.

Regarding `O=C(CCl)Oc1ccc2occ(C(=O)c3cccs3)c2c1`, the EC50 is inactive: > 30 µM.

Consider `CC(Cc1c[nH]c2ccccc12)NC(=O)OCCCl` (centres undefined), for which the EC50 was inactive: > 30 µM.
